# In the supplement of paper PMC7666118:
# Sequences of proteins named here, by UniProt entry; tags and fusion partners are left off. A change or cut given only in a name is not applied to a line headed by its entry.
# UniProt P53618: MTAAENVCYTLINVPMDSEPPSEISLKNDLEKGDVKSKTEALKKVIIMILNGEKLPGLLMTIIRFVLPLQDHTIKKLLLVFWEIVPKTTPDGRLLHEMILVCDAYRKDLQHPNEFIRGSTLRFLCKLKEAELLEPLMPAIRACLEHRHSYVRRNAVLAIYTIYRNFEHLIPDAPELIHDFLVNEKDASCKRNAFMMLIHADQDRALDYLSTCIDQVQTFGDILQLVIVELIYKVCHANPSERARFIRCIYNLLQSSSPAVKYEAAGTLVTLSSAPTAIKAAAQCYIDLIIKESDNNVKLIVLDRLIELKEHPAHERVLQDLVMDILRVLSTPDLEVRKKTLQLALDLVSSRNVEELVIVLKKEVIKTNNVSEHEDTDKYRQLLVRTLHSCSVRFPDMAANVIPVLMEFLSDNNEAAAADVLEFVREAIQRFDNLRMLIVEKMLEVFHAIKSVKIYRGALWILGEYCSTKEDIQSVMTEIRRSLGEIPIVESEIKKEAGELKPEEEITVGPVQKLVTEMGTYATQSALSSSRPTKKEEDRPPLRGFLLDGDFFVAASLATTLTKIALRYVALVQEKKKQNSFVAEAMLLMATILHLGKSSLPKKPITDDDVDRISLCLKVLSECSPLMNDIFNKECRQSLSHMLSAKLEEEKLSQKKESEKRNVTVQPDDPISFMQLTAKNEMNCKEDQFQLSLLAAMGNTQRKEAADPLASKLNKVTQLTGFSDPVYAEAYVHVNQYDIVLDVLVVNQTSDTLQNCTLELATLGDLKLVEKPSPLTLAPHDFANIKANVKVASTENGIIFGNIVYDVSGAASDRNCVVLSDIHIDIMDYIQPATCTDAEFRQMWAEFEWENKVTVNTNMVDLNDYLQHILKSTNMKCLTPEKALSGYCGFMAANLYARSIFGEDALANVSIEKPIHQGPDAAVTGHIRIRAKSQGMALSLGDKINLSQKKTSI
# UniProt P17676: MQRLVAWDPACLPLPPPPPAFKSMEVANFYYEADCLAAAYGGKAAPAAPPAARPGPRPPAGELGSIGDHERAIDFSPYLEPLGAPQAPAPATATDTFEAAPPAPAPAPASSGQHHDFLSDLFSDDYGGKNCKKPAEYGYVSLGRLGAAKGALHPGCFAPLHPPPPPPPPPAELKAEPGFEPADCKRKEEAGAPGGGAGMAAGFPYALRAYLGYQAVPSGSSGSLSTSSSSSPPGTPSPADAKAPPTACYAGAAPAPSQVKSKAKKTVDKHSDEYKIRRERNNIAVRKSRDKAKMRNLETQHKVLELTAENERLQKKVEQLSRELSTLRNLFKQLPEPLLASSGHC
# UniProt Q9Y2V7: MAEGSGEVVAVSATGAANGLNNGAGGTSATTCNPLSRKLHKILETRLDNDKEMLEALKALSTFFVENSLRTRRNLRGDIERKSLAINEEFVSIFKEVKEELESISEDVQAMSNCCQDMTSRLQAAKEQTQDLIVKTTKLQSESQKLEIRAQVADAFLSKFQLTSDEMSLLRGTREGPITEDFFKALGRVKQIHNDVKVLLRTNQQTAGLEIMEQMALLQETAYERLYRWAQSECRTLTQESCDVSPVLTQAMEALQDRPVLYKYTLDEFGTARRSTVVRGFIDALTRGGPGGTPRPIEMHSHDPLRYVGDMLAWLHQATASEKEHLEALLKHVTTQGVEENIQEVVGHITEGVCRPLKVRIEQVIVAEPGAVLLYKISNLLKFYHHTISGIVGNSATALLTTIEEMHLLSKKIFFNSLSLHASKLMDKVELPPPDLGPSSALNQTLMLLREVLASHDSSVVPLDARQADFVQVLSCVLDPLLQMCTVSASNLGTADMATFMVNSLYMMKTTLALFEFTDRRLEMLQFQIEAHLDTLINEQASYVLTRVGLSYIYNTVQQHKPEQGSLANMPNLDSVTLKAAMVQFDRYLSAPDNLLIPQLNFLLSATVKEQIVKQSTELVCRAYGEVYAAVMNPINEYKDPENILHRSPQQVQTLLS
# UniProt Q9NUP1: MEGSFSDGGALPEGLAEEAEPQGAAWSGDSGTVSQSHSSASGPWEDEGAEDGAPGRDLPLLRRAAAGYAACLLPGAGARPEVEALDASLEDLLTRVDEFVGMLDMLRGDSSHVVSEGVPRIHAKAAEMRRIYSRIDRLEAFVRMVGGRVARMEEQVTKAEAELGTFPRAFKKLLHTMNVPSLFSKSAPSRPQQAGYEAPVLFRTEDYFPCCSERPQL
# UniProt Q16543: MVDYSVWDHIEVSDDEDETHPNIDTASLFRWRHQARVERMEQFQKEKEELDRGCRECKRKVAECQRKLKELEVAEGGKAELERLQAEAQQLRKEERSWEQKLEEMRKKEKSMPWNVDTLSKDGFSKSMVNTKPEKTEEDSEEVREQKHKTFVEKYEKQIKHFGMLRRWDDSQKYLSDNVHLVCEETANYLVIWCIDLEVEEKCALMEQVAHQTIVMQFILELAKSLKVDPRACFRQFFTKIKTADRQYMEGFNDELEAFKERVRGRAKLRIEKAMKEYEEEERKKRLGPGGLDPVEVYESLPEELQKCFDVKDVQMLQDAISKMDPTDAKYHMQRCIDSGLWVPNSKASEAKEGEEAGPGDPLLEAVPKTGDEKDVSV
# UniProt Q8WVB6, whole entry: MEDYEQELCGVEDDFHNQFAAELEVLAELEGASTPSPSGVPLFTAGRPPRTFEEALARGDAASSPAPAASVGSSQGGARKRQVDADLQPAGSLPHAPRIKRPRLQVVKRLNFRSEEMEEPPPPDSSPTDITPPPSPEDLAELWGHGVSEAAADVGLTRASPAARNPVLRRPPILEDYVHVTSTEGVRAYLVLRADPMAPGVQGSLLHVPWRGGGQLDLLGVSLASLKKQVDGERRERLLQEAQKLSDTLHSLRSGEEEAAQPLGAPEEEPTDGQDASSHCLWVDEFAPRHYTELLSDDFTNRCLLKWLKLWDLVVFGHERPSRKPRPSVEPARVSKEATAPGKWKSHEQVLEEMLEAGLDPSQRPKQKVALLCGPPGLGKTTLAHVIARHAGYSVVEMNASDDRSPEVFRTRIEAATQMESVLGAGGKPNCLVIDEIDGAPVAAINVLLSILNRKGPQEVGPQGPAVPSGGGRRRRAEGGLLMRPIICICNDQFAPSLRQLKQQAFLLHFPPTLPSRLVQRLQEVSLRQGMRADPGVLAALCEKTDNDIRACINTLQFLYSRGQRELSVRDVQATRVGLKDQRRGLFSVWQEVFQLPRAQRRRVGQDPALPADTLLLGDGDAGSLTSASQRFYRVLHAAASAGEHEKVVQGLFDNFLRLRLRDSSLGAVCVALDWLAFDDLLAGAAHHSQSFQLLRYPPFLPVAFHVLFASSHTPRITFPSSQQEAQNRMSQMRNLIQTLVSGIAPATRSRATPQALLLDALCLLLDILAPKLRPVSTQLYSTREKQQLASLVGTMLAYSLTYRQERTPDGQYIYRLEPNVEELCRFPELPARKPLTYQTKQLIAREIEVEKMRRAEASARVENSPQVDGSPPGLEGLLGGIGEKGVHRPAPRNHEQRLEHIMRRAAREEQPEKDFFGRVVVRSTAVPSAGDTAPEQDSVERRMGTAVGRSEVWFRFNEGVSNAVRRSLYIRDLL
# UniProt Q9BW66: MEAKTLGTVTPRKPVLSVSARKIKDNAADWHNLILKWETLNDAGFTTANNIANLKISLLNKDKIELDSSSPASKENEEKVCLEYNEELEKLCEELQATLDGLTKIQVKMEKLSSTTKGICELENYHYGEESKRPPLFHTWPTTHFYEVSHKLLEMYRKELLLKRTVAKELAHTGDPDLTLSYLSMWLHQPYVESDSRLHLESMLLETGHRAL
# UniProt P14209: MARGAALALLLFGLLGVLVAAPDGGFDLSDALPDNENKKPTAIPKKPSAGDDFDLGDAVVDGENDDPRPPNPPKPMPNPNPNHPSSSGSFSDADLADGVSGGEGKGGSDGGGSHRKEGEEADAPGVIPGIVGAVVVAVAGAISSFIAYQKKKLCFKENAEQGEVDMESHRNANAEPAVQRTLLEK
# UniProt Q69YH5: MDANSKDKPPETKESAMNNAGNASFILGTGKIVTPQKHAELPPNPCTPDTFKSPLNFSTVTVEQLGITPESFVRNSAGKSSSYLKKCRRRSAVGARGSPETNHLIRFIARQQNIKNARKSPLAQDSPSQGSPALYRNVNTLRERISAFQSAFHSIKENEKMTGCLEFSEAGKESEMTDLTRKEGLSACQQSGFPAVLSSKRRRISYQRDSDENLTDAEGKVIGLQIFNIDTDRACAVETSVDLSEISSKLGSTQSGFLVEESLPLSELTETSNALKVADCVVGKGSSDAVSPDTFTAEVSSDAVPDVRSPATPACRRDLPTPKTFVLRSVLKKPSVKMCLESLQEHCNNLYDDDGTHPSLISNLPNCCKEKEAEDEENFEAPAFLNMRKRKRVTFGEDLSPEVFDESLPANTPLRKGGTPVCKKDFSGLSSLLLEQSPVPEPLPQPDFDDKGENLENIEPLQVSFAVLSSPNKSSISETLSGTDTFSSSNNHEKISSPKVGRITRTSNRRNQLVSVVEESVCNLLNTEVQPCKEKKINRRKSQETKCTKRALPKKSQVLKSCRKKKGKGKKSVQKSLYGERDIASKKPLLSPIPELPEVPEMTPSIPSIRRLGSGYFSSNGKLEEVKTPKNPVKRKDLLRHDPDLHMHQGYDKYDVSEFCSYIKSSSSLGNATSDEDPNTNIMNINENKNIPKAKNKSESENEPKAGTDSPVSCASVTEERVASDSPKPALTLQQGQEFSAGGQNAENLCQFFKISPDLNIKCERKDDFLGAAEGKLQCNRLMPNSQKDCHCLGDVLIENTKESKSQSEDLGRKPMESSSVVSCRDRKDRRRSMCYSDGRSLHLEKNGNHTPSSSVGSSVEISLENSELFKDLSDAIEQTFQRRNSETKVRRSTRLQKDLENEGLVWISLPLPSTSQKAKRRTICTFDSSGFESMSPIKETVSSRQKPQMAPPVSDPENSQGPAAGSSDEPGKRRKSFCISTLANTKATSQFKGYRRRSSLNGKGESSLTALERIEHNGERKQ
# UniProt Q8N4Q1: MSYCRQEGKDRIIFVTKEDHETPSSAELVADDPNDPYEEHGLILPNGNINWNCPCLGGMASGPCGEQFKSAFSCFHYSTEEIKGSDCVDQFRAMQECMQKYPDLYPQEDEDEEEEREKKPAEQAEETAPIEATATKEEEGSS
# UniProt P09326: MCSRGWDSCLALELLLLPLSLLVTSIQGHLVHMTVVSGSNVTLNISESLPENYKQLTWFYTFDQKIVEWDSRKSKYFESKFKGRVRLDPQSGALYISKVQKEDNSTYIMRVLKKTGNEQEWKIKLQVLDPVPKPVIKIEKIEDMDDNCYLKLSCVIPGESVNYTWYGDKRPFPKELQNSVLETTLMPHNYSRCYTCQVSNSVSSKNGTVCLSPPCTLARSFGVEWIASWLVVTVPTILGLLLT
# UniProt Q9P2I0: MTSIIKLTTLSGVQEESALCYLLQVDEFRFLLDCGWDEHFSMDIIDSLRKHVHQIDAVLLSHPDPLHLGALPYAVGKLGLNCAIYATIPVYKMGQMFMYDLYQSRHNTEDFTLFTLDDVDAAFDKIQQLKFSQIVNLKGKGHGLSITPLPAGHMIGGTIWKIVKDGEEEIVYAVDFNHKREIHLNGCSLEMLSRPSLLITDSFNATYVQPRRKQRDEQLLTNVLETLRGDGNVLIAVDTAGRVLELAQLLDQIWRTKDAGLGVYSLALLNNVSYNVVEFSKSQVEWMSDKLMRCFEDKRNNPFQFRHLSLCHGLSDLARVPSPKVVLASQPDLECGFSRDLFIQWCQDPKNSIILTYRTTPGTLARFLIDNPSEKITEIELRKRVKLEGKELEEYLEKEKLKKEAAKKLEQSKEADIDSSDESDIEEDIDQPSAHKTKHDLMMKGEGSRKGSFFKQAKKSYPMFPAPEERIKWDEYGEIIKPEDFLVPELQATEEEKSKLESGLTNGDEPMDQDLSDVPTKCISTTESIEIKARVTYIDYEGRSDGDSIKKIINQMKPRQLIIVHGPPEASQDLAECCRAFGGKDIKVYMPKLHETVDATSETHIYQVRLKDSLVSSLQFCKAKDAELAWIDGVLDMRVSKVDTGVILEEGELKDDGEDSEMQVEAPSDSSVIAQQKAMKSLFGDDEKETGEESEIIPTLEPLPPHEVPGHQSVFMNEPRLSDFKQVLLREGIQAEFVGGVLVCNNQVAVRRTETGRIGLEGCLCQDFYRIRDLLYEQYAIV
# UniProt Q6FI81: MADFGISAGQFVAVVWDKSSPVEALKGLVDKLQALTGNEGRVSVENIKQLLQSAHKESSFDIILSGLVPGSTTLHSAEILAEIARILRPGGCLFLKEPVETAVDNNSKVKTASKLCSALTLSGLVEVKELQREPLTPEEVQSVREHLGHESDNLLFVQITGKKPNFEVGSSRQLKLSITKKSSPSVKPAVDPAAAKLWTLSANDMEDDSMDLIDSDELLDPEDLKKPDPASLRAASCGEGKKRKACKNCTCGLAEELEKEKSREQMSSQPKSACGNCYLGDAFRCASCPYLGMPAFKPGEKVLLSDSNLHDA
# The other results are listed elsewhere or left out.
# Compound: COc1ccc(Cn2ccc3cc(C)c(C(=O)NO)cc32)cc1
# Assay: dose-dependent thermal stabilisation call (2D-TPP, DLPTP, 10% FDR) (binary (1 = stabilised)); higher = stabilised by the compound
# Conditions: system: HL-60 intact cells; concentration range 0.04-10 µM
# Experimental: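 2D thermal proteome profiling in intact HL-60 cells treated with BRD-3811 (0, 0.04, 0.29, 2, 10 uM) for 90 min at 37 C, then heated 3 min at one of 12 temperatures (42-63.9 C). Soluble protein was quantified by TMT10 MS. The value is the DLPTP call of the paper: dose-dependent thermal stabilisation over all temperatures at 10% FDR (F-test of a dose-response against a flat model); one experiment, one call per tested protein.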
row,Target,dose-dependent thermal stabilisation call
1,COPB1 (UniProt P53618),inactive: 0
2,COMMD4 (UniProt Q9H0A8),inactive: 0
3,CEBPB (UniProt P17676),inactive: 0
4,COG6 (UniProt Q9Y2V7),inactive: 0
5,CNO (UniProt Q9NUP1),inactive: 0
6,CHP (UniProt Q99653),inactive: 0
7,CP110 (UniProt O43303),inactive: 0
8,COX2,inactive: 0
9,CDC37 (UniProt Q16543),inactive: 0
10,CLSTN1 (UniProt O94985),inactive: 0
11,COX3,inactive: 0
12,CHMP2B (UniProt Q9UQN3),inactive: 0
13,COG3 (UniProt Q96JB2),inactive: 0
14,CHTF18 (UniProt Q8WVB6),inactive: 0
15,CINP (UniProt Q9BW66),inactive: 0
16,CHSY1 (UniProt Q86X52),inactive: 0
17,CECR5 (UniProt Q9BXW7),inactive: 0
18,CD99 (UniProt P14209),inactive: 0
19,CEBPA (UniProt P49715),inactive: 0
20,CDCA2 (UniProt Q69YH5),inactive: 0
21,CHCHD4 (UniProt Q8N4Q1),inactive: 0
22,CD48 (UniProt P09326),inactive: 0
23,CPSF2 (UniProt Q9P2I0),inactive: 0
24,CLGN (UniProt O14967),inactive: 0
25,CREG1 (UniProt O75629),inactive: 0
26,CIAPIN1 (UniProt Q6FI81),inactive: 0
27,CD99L2 (UniProt Q8TCZ2),inactive: 0
28,COMMD5 (UniProt Q9GZQ3),inactive: 0

# Copied from the list:
# CEBPA (UniProt P49715) – dose-dependent thermal stabilisation call: inactive: 0
# CINP (UniProt Q9BW66) – dose-dependent thermal stabilisation call: inactive: 0
